# Some of the results follow. These are further read-outs of the screen, such as a control signal, another cell line or another target. No call is given for them. Compounds called inactive in the main read-out are mostly missing here. Words in brackets tell the shape of the fitted curve; partial curves, single points and poor fits give uncertain potencies.
# Assay: qHTS Assay for Lipid Storage Modulators in Drosophila S3 Cells;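 on cell number change: cells counted by Cell Tracker Red CMTPX staining in the red channel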
# Conditions: BODIPY lipid droplet fluorescence, 18-24 h; for cell number change: measured here: cell count max response, cells fed with added oleic acid
# Outline: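 Drosophila S3 cells loaded with oleic acid (400 uM, as added) and compounds at several concentrations; lipid droplets imaged by 488-nm laser-scanning cytometry, 500–530 nm intensity and object ratio to cell channel. Percent activity normalized to 20 uM Triacsin C.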
# [1] = measured here: cell number channel AC50, cells fed with added oleic acid
# [2] = measured here: lipid fluorescence (Fed channel) AC50, cells fed with added oleic acid
SMILES,cell number change [%],AC50 [1],AC50 [2]
COCCn1c(SCc2nnc(-c3ccccc3)o2)nc2sc3c(c2c1=O)CCC3,-10.3,–,–
CCOc1ccc(N(C(=O)C2CCCO2)C2C=CS(=O)(=O)C2)cc1 (configuration not stated),-33.4,"18.4 µM [falling, single point]","0.58 µM [falling, full curve]"
CC(=O)Nc1ccc(S(=O)(=O)N2CCC(C(=O)N[C@@H](Cc3ccccc3)C(=O)O)CC2)cc1,3.52,"7.31 µM [rising, partial curve, poor fit]","6.51 µM [rising, single point]"
CCCCn1c(=O)cc(N2CCOCC2)[nH]c1=O,-105,"25.9 µM [falling, partial curve]","23.1 µM [falling, partial curve]"
COc1cc(C(=O)OCC(C)=O)ccc1OCc1c(C)noc1C,18.1,"3.66 µM [rising, single point]","20.6 µM [rising, single point]"
COc1ccc(NC(=O)COc2ccc(C)nc2[N+](=O)[O-])cc1S(N)(=O)=O,-3.89,–,"18.4 µM [rising, single point]"
COc1ccc(/C(N)=N/OC(=O)/C=C/c2ccccc2)cc1,7.92,–,–
Fc1cccc2sc(N3CCCC3)nc12,-14.8,–,"16.4 µM [falling, single point]"
CCN(CC)C(=O)c1ccc(/C=C/c2c[nH]c3ccccc23)[n+](C)c1,9.68,–,"32.6 µM [falling, single point]"
CCOC(=O)c1sc(N)c(C#N)c1COC(=O)CNC(=O)c1cc(OC)c(OC)c(OC)c1,53.1,"0.164 µM [rising, full curve]",–
O=C(O)c1cn(Cc2cccnc2)c(=O)c2ccccc12,-34.7,"14.6 µM [falling, partial curve]",–
CCOc1ccc(N/C=C/C(=O)c2ccccc2)c([N+](=O)[O-])c1,-9.58,–,–
COc1ccc(-c2ccnc3c(C#N)cnn23)cc1,21.3,"0.13 µM [rising, full curve, poor fit]","32.6 µM [rising, single point]"
CC1(C)CC(=O)C2=C(C1)OC1OC(=O)CC21C (configuration not stated),38.5,"0.517 µM [rising, partial curve, poor fit]",–
CCOc1ccc(C2C(C(=O)c3ccc(C)o3)=C(O)C(=O)N2CCN2CCOCC2)cc1OC (configuration not stated),0.978,–,–
COc1ccc(CCNC(=O)COc2ccc3c(c2)OCO3)cc1,-18.2,–,"29.1 µM [falling, single point]"
Cc1ccc(C(=O)CNc2cccc([N+](=O)[O-])c2)cc1,26.3,–,–
CCN(CC(=O)N1CCCC1)S(=O)(=O)c1ccc(Br)cc1,35.8,–,–
Cc1cc(NS(=O)(=O)c2ccc(NC(=O)CCCOc3cccc(C)c3C)cc2)no1,41.5,"0.82 µM [rising, full curve, poor fit]","6.51 µM [rising, single point]"
CCCN1CCN(CCCNC(=O)C2CCCN(c3nnc(-n4cccc4)s3)C2)CC1 (configuration not stated),19.1,–,"13 µM [rising, partial curve]"
COc1ccc(-c2[nH]ncc2-c2ccc(Cl)cc2)c(O)c1,-51.3,"11.6 µM [falling, partial curve]","18.4 µM [falling, single point]"
COc1ccccc1CCNS(=O)(=O)c1c(C)n(C)c(=O)n(C)c1=O,-144,"29.1 µM [falling, partial curve]","23.1 µM [falling, partial curve]"
CCCc1cc(=O)n2[nH]c(SCc3ccc(Cl)cc3)nc2n1,-26.8,–,"29.1 µM [falling, single point]"
Cc1cccc(Oc2ccc(NC(=O)c3ccccc3C(=O)O)cc2)c1C,59.1,"20.6 µM [rising, partial curve, poor fit]",–
COc1ccc(C2=Nn3c(nnc3-c3ccccn3)SC2)cc1OC,–,–,"29.1 µM [falling, single point]"
CN1C(=O)c2cccc(NCCCN3C(=O)c4ccccc4C3=O)c2C1=O,7.23,–,"6.51 µM [rising, full curve]"
Cc1cccc(NC(=O)CSCC(=O)Nc2cccc3ncccc23)c1,-50,"29.1 µM [falling, single point]",–
Cc1ccc(NC(=O)CNC(=O)c2ccc(C)o2)cc1,-0.787,–,"29.1 µM [rising, single point]"

# 2 of the compounds above, bar-delimited:
SMILES | cell number change [%] | AC50 [1] | AC50 [2]
Fc1cccc2sc(N3CCCC3)nc12 | -14.8 | – | 16.4 µM [falling, single point]
CC1(C)CC(=O)C2=C(C1)OC1OC(=O)CC21C (configuration not stated) | 38.5 | 0.517 µM [rising, partial curve, poor fit] | –

# From PubChem BioAssay AID2685 (National Center for Advancing Translational Sciences (NCATS), 2010)
